Reference: PubChem BioAssay (NCATS)
This list was built around the results that the source calls inconclusive (neither active nor inactive); the mix of calls is not that of the screen. A potency beside an inconclusive call is a rough fit, not a confirmed value. Calls of active or inactive are those of the source. Calls follow the shape of the dose curve; as a rule, active = well fitted cell-killing curve with a large enough effect; inconclusive = small, poorly fitted or top-dose-only effect, or effect the other way; inactive = no such curve, though single readings can be large or run the other way.
Potency is read from the fitted curve at half-maximal effect.

Experiment: Quantitative High-Throughput drug screen in 47 multiple myeloma cell lines against the NCATS MIPE library collection: LP1_DSMZ cell viability assay (AID 1918982); also: nearly all actives have a fitted effect of over 35% in size
Settings: LP1 myeloma viability, CellTiter-Glo ATP luminescence, 48 h; viability (% of control): at 45.8 µM (top of the series)
Excerpt: PI: Beverly A. Mock Ph.D.
Laboratory of Cancer Biology and Genetics,
Center for Cancer Research, National Cancer Institute,
National Institute of Health, Bethesda, Maryland
Drug resistance and disease progression are common in multiple myeloma (MM) patients, underscoring the need for new therapeutic combinations. […] We hypothesized that effective combinations would reduce MYC expression and enhance p16 activity. […] These preclinical data identify potentially useful drug combinations for evaluation in drug-resistant MM and reveal potential mechanisms of combined drug sensitivity.
Described herein is the primary MIPE qHTS used to cherrypick compounds. Validated compounds were then further tested for potential synergistic activiy.
[1] Peat TJ, Gaikwad SM, Dubois W, Gyabaah-Kessie N, Zhang S, Gorjifard S, Phyo Z, Andres M, Hughitt VK, Simpson RM, Miller MA, Girvin AT, Taylor A, Williams D, D'Antonio N, Zhang Y, Rajagopalan A, Flietner E, Wilson K, Zhang X, Shinn P, Klumpp-Thomas C, McKnight C, Itkin Z, Chen L, Kazandijian D, Zhang J, Michalowski AM, Simmons JK, Keats J, Thomas CJ, Mock BA. Drug combinations identified by high-throughput screening promote cell cycle transition and upregulate Smad pathways in myeloma. Cancer Lett. 2023 Aug 1;568:216284. doi: 10.1016/j.canlet.2023.216284. Epub 2023 Jun 24. PMID: 37356470; PMCID: PMC10408729.
SEQUENCE No. (e.g., 1, 2, 3, etc.); […] (e.g., Cells, Incubation, Reagent, etc.); VALUE and DESCRIPTION.
1; Cells; 5 uL; white, solid bottom 1536-well Greiner assay plate.
2; Compounds; 23 nL; Kalypsis pin tool (Wako USA) equipped with a 1536-well pin head to transfer to the assay plates.
3; Incubation; 48 hours; 37C incubation.
4; Reagent;5uL; CellTiter Glo (Promega).
5; Detector; 425V; Luminescence; Viewlux PerkinElmer.
NOTES (numbers refer to Sequence numbers above)
1. The cell-based screening methods employed in this study were like those previously published. Briefly, the corresponding myeloma cell lines were screened in 1,536-well plates with 500 cells, 5-uL per well for inhibition of cell viability (assessed by measuring ATP levels with CellTiterGlo).
2. NCATS MIPE 4.0 library of approved and investigational drugs were added using the Kalypsis pin tool. Wells treated with DMSO only for 100% viability and media only for 0% viability were used as controls.
3. The assay plates were covered and incubated for 48 hours in a 37C, 5% CO2 incubator with controlled humidity.
4. After 48 hours, CellTilter-GloTM luminescent substrate mix (Promega) reagent was added to the assay plate and plates we incubated for 5 min at room temperature.
5. Signal was measured as median relative luminescence units on a ViewLux (PerkinElmer) multiplate reader.
[1] Heske CM, Davis MI, Baumgart JT, Wilson K, Gormally MV, Chen L, Zhang X, Ceribelli M, Duveau DY, Guha R, Ferrer M, Arnaldez FI, Ji J, Tran HL, Zhang Y, Mendoza A, Helman LJ, Thomas CJ. Matrix Screen Identifies Synergistic Combination of PARP Inhibitors and Nicotinamide Phosphoribosyltransferase (NAMPT) Inhibitors in Ewing Sarcoma. Clin Cancer Res. 2017 Dec 1;23(23):7301-7311. doi: 10.1158/1078-0432.CCR-17-1121. Epub 2017 Sep 12. PMID: 28899971; PMCID: PMC6636827.
In the case of `Nc1nccc(-c2ccc3noc(-c4ccc(Cl)cc4)c3c2)n1`, the Potency is reported as inconclusive: 33.2 µM [cytotoxic, single point].
With `CC=C(C(=CC)c1ccc(O)cc1)c1ccc(O)cc1` the Potency was inconclusive: 11.8 µM [cytotoxic, partial curve, poor fit].
With `C=CCn1c(=O)c2cnc(Nc3ccc(N4CCN(C)CC4)cc3)nc2n1-c1cccc(C(C)(C)O)n1` the Potency was inconclusive: 1.18 µM [cytotoxic, full curve].
In the case of `NS(=O)(=O)c1cc(Cl)c(Cl)c(S(N)(=O)=O)c1`, the Potency is reported as “inactive”.
For `O=C(c1ccc(F)cc1)C1CCN(CCn2c(=O)[nH]c3ccccc3c2=O)CC1`, the Potency was “inactive”.
With `COc1cc2c(cc1OC)[C@@H]1Cc3ccc(OC)c(OC)c3CN1CC2` the Potency was inconclusive: 14.8 µM [cytotoxic, partial curve].
For `C=C1c2cccc(O)c2C(O)=C2C(=O)[C@@]3(O)C(O)=C(C(N)=O)C(=O)[C@@H](N(C)C)[C@@H]3[C@@H](O)[C@H]12`, the Potency was active: 23.5 µM.
For `CC[C@]1(O)C[C@H]2CN(CCC3=c4ccccc4=N[C]3[C@@](C(=O)OC)(c3cc4c(cc3OC)N(C)[C@H]3[C@@](O)(C(N)=O)[C@H](O)[C@]5(CC)C=CCN6CC[C@]43[C@@H]65)C2)C1`, the Potency was active: 0.0083 µM.
In the case of `COc1ccc(Cc2nccc3cc(OC)c(OC)cc23)cc1OC`, the Potency is reported as inconclusive: 20.9 µM [cytotoxic, partial curve].
For `CC=CC1=C(C(=O)O)N2C(=O)[C@H](NC(=O)[C@H](N)c3ccc(O)cc3)[C@@H]2SC1`, the Potency was inconclusive: 10.5 µM [rising, partial curve, poor fit].
With `CSc1cccc(Nc2ncc3cc(-c4c(Cl)cccc4Cl)c(=O)n(C)c3n2)c1` the Potency was inconclusive: 1.18 µM [cytotoxic, full curve].
In the case of `CN(C(=O)c1ccc(F)cc1C(F)(F)F)C1CCN(c2nnc(-c3ccnn3C)c3ccccc23)CC1`, the Potency is reported as inconclusive: 0.0012 µM [rising, full curve, poor fit].
In the case of `COc1cc(Nc2ncc3c(n2)-c2ccc(Cl)cc2C(c2c(F)cccc2OC)=NC3)ccc1C(=O)O`, the Potency is reported as “inactive”.
For `c1ccc(-c2oc3ncnc(NC[C@@H]4CCCO4)c3c2-c2ccccc2)cc1`, the Potency was inconclusive: 14.8 µM [cytotoxic, partial curve].
With `O=C1CSC(=O)N1C(CCc1ccncc1)COc1ccc(-c2cccc([N+](=O)[O-])c2)cc1` (stereo not given) the Potency was active: 5.9 µM.
In the case of `Clc1cccc(Cl)c1NC1=NCCN1`, the Potency is reported as “inactive”.
For `N[C@@H](C(=O)N[C@@H]1C(=O)N2C(C(=O)O)=C(Cl)CS[C@H]12)c1ccccc1`, the Potency was “inactive”.
With `CC(C)(C)[C@H](NC(=O)c1ccc(N)c(Cl)c1)C(=O)N1CCC[C@@H]1C(=O)N[C@H](C#N)CC(=O)O` the Potency was inconclusive: 0.0002 µM.
In the case of `CC(=O)Nc1cccc(-n2c(=O)n(C3CC3)c(=O)c3c(Nc4ccc(I)cc4F)n(C)c(=O)c(C)c32)c1`, the Potency is reported as “inactive”.
In the case of `COc1ccc2[nH]cc(CCNC(C)=O)c2c1`, the Potency is reported as inconclusive: 29.6 µM [cytotoxic, single point].
With `c1ccc(CNc2nc(N3CCOc4ccccc43)nc3c2CCCC3)cc1` the Potency was inconclusive: 26.4 µM [cytotoxic, single point].
With `COc1ccc(CC2c3cc(OC)c(OC)cc3CC[N+]2(C)CCC(=O)OCCCCCOC(=O)CC[N+]2(C)CCc3cc(OC)c(OC)cc3C2Cc2ccc(OC)c(OC)c2)cc1OC` (stereo not given) the viability (% of control) was inactive: 101% [at 5.15 µM].
In the case of `CC(C)(O)CCc1ccc(OCc2cc(-c3cccc(OC(F)F)c3)c3ncccc3c2)cc1`, the Potency is reported as “inactive”.
In the case of `COc1cc2nc(N(C)CCCNC(=O)C3CCCO3)nc(N)c2cc1OC` (stereo not given), the Potency is reported as inconclusive: 0.0021 µM [rising, full curve].
For `CN(c1nccc(=O)[nH]1)C1CCN(c2nc3ccccc3n2Cc2ccc(F)cc2)CC1`, the Potency was “inactive”.
With `Cc1oc(=O)oc1CN1CCN(c2cc3c(cc2F)c(=O)c(C(=O)O)c2n3C(C)S2)CC1` (stereo not given) the Potency was inconclusive: 18.7 µM [cytotoxic, partial curve, poor fit].
With `Cn1cc(C[C@@H](N)C(=O)O)c2ccccc21` the Potency was inconclusive: 5.75 µM [cytotoxic, single point].
In the case of `N#CC1(c2cccc(C(=O)Nc3cc(Oc4ccc5nc(NC(=O)C6CC6)sc5n4)ccc3F)c2Cl)CC1`, the Potency is reported as inconclusive: 16.6 µM [cytotoxic, partial curve].
For `CCN(CC)CCNC(=O)c1ccc2nc(-c3ccccc3)c(-c3ccc(CN4CCC(n5c(=O)[nH]c6ccccc65)CC4)cc3)nc2c1`, the Potency was active: 18.7 µM.
In the case of `CN(C)c1nc(Cc2ccc(NC(=O)c3ccc4ccccc4c3)cc2)nc(Cl)c1CC(=O)O`, the Potency is reported as “inactive”.
With `CCOc1ccccc1OCCNC(C)Cc1ccc(OC)c(S(N)(=O)=O)c1` (stereo not given) the Potency was inconclusive: 0.001 µM.
For `O=C(O)c1ccc2c(c1)nc(Nc1cccc(Cl)c1)c1ccncc12`, the Potency was inconclusive: 14.8 µM [cytotoxic, partial curve].
In the case of `COc1ccc2ccc(=O)oc2c1CC=C(C)C`, the Potency is reported as inconclusive: 16.6 µM [cytotoxic, partial curve, poor fit].
For `Cn1cc(-c2ccc3nnc(Sc4ccc5ncccc5c4)n3n2)cn1`, the Potency was active: 0.001 µM.
For `C=CC(=O)Nc1cc(NC(=O)c2ccc(C)c(NC(=O)c3ccno3)c2)cc(C(F)(F)F)c1`, the Potency was inconclusive: 16.6 µM [cytotoxic, partial curve, poor fit].
For `Cc1cn([C@H]2C[C@H](N=[N+]=[N-])[C@@H](CO)O2)c(=O)[nH]c1=O`, the Potency was inconclusive: 0.0012 µM [cytotoxic, full curve, poor fit].
For `C[C@]12CCC(=O)C=C1[C@@H]1CC1[C@H]1[C@H]3[C@@H]4C[C@H]4[C@@]4(CCC(=O)O4)[C@@]3(C)CC[C@H]12` (stereo not given in full), the Potency was inconclusive: 18.7 µM [cytotoxic, partial curve, poor fit].
For `Clc1ccc(COC(Cn2ccnc2)c2ccc(Cl)cc2Cl)c(Cl)c1` (stereo not given), the Potency was inconclusive: 23.5 µM [cytotoxic, partial curve].
For `O=C(C=Cc1c(C(=O)O)[nH]c2cc(Cl)cc(Cl)c12)Nc1ccccc1`, the Potency was “inactive”.
In the case of `NS(=O)(=O)c1cc2c(cc1Cl)NC(C(Cl)Cl)NS2(=O)=O` (stereo not given), the Potency is reported as “inactive”.
